Laboratory results: PubChem BioAssay AID504327 (National Center for Advancing Translational Sciences (NCATS), 2011)
In all, about 390,000 compounds went through this assay and about 820 (0.21%) were called active. Inconclusive means that the source gave no clear call. Such entries were picked first, then a sample of the others. Calls come from the whole dose curve; as a rule, active = well fitted inhibition curve with a large enough effect; inconclusive = small, poorly fitted or top-dose-only effect, or another doubt; inactive = no such curve, though single readings can be large or run the other way. Potencies beside an inconclusive call are fits to weak or partial responses and may not hold up.

The chains behind the UniProt entries cited, without tags or fusion partners.
UniProt Q92830, whole entry, looked up: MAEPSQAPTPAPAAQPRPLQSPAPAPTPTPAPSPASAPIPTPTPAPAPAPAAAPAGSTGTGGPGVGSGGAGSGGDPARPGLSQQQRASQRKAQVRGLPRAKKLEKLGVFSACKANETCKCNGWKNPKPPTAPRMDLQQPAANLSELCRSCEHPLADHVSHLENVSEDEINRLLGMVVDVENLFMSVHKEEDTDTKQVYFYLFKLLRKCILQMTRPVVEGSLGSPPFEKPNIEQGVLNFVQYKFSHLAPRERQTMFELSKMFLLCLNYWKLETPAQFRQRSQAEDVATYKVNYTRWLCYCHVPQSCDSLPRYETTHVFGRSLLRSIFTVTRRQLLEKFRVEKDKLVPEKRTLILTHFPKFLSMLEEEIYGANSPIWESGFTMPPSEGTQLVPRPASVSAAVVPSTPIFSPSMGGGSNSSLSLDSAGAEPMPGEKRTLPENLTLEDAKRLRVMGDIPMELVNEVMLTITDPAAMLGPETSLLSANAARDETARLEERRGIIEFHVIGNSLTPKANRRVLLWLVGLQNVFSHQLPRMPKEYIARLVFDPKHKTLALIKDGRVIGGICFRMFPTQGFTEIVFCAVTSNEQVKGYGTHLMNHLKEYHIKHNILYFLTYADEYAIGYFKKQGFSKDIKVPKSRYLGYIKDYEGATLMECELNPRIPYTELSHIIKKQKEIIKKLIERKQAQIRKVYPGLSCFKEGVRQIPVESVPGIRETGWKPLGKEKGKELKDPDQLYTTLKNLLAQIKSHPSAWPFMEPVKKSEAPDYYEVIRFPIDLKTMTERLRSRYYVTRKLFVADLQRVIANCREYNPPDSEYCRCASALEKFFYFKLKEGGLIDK

target: Histone acetyltransferase KAT2A (Homo sapiens) (UniProt Q92830); test: qHTS Assay for Inhibitors of GCN5L2; conditions: GCN5L2 HAT assay, ThioGlo1 CoA-SH fluorescence; activity change, negative = inhibition: at 58.9 µM (top of the series) unless noted
Procedure, shortened: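 Enzyme at 20nM final was mixed with library compounds for 15 min at room temperature. Peptide H3(1-25) at 75uM, acetyl-CoA at 70uM and ThioGlo1 at 50uM were then added. Plates were read immediately and after 20 min (Ex340nm/Em540nm).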
% is set by controls: 0 for no effect and ±100 for the full control effect; potency is the fitted concentration of half-maximal effect.

Compound	Potency	activity change, negative = inhibition
CCOc1cc2[nH]c(=S)n(CCCC(=O)NCc3ccco3)c(=O)c2cc1OCC	inconclusive: 39.8 µM [inhibitor, single point]	–
Cc1cc(C)nc(SCc2nnc(SCC(=O)NCc3ccco3)n2-c2ccccc2)n1	inactive	–
Cn1c(=O)n(CCc2ccccc2)c2ccccc21	inconclusive: 2.51 µM [inhibitor, partial curve]	–
COc1ccc(OC)c(CN2CCN(C(=O)c3ccc(F)cc3)CC2)c1	inactive	–
CCC(C)(C)C1CCc2c(sc(NC(=O)c3ccccc3C(=O)O)c2C#N)C1 (stereo not given)	inconclusive: 31.6 µM [inhibitor, single point]	–
O=C1/C(=C/c2ccco2)SC(=S)N1C1CCS(=O)(=O)C1 (stereo not given)	inconclusive: 39.8 µM [inhibitor, partial curve, poor fit]	–
COc1ccccc1[C@@H]1C(c2cccc(Cl)c2)=NN(c2ccccc2)[C@H]1C(=O)N1CCOC1=O	active: 20 µM	–
CC(=O)N(CCC(c1ccccc1)c1ccco1)Cc1cccs1 (stereo not given)	inconclusive: 39.8 µM [inhibitor, single point]	–
COc1ccc(-c2ccc(-c3cc(=O)oc4c(C(C)C)ccc(C)c34)cc2)cc1	inconclusive: 11.2 µM [inhibitor, single point]	–
CCOc1ccc(C(C)NC(=O)Nc2ccc(F)cc2F)cc1 (stereo not given)	inconclusive: 22.4 µM [inhibitor, partial curve, poor fit]	–
COc1ccc(C2=NS(=O)(=O)N(C)C(C(=O)NCc3ccc4c(c3)OCO4)=C2)cc1OC	inconclusive: 0.708 µM [inhibitor, partial curve, poor fit]	–
CCCN(CCC)Cc1cc(=O)oc2cc3c(cc12)CCC3	inactive	–
CCOC(=O)c1c(C)oc2c1c(C(c1cccnc1)N1CCCCC1)c(O)c1ccccc12 (stereo not given)	inactive	–
O=C(CSc1ccc(-c2ccco2)nn1)Nc1ccccc1F	inconclusive: 4.47 µM [inhibitor, partial curve, poor fit]	–
S=C(NC1CCCC1)N1CCOCC1	inactive	–
COc1ccc2c(c1OC)C(Cc1ccccc1)N1CCc3cc4c(cc3C1C2)OCO4 (stereo not given)	inconclusive: 31.6 µM [inhibitor, single point]	–
O=C(NCCN1CCOCC1)c1cc([N+](=O)[O-])cc([N+](=O)[O-])c1	inconclusive: 25.1 µM [inhibitor, single point]	–
COc1ccccc1CNC(=O)c1oc2ccc(S(=O)(=O)N3CCCC3)cc2c1C	inconclusive: 31.6 µM [inhibitor, single point]	–
CC(C)(C(=O)O)c1ccc(C(O)CCCN2CCC(C(O)(c3ccccc3)c3ccccc3)CC2)cc1 (stereo not given)	inconclusive: 39.8 µM [inhibitor, single point]	–
Cc1cccc(-c2nc3ccccc3n3c(-c4ccccc4)c4c(=O)n(C)c(=O)n(C)c4c23)c1	inactive	–
COc1ccc(C(=O)NC(=S)NNC(=O)c2ccc3ccccc3n2)cc1	inactive	–
Cc1ccc(Cl)cc1N1CCN(C(=O)COc2ccc(S(=O)(=O)NC(C)C)cc2)CC1	inactive	–
O=C(CNc1ccccc1)c1ccc([N+](=O)[O-])cc1	inactive	–

Compound	Potency	activity change, negative = inhibition
COc1ccc(CNC(=O)Cc2ccc(NC(=O)C3=C(C)OCCS3)cc2)cc1	inconclusive: 25.1 µM [inhibitor, partial curve]	–
COC(=O)CSC1=C(C#N)C(=O)NC2(CCCCC2)S1	inconclusive: 20 µM [inhibitor, single point]	–
Cc1cc(NC(=O)CCN2C(=O)C3C4C=CC(C4)C3C2=O)c2ccccc2n1 (stereo not given)	inconclusive: 39.8 µM [inhibitor, single point]	–
CCCS(=O)(=O)N1CCCC(C(=O)NCCc2ccc(Cl)cc2)C1 (stereo not given)	inconclusive: 0.562 µM [inhibitor, single point]	–
c1ccc2c(Cc3c[nH]c4ccccc34)c[nH]c2c1	inactive	–
CCCCCCCCCCOc1cc(OCCCCCCCCCC)cc(N(CC(=O)O)CC(=O)O)c1	inconclusive: 5.01 µM [inhibitor, single point]	–
CN(C)CCn1nnnc1SCC1=C(C(=O)O)N2C(=O)[C@@H](NC(=O)Cc3csc(N)n3)[C@@H]2SC1	inconclusive: 10 µM [inhibitor, single point]	–
Cc1sc(N)c(C(=O)c2cccc(C(F)(F)F)c2)c1C	inconclusive: 28.2 µM [inhibitor, single point]	–
COc1ccc(OC)c2c(=S)c3ccccc3[nH]c12	active: 14.1 µM	–
COc1cc(/C=C/C(=O)c2ccc([N+](=O)[O-])o2)ccc1O	inactive	–
CN=C1N[C@H](c2ccccc2)N(c2ccccc2)S1	inconclusive: 0.708 µM [inhibitor, full curve]	–
CC(C)N1CCN(Cc2nc3ccccc3s2)CC1CCO (stereo not given)	inactive	–
CCOC(=O)C1=C(C)NC(=O)NC1/C=C\c1ccccc1 (stereo not given)	inconclusive: 6.31 µM [inhibitor, single point]	–
O=C1C(Nc2ccc(O)cc2)=C/C(=N/S(=O)(=O)c2cccs2)c2ccccc21	inactive	–
O=C(CN1C(=O)C2C3C=CC(C3)C2C1=O)Nc1nc(-c2ccccn2)cs1 (stereo not given)	–	inconclusive: -89.5% [inhibitor]
Nc1nc(OCc2ccccc2)c2[nH]cnc2n1	inactive	–
O=C(CCC(=O)OCC(=O)c1ccc(Cl)cc1)Nc1ccc(Oc2ccccc2)cc1	inactive	–
O=C(Cn1ccc(NC(=O)OCc2ccccc2)nc1=O)NCCc1ccccn1	inconclusive: 35.5 µM [inhibitor, single point]	–
CCCOc1cccc(C2C(C(=O)c3cc4ccccc4o3)=C(O)C(=O)N2c2cc(C)on2)c1 (stereo not given)	inconclusive: 39.8 µM [inhibitor, single point]	–
Cc1nc2[nH]c(=S)[nH]c2cc1Br	inconclusive: 31.6 µM [inhibitor, single point]	–
COCCCn1c(=S)[nH]c2sc3c(c2c1=O)CCCS3	inconclusive: 28.2 µM [inhibitor, single point]	–
COc1cccc(/C(O)=C2/C(=O)C(=O)N(Cc3ccco3)C2c2ccncc2)c1 (stereo not given)	inconclusive: 1 µM [inhibitor, full curve, poor fit]	–

2 of these compounds in a different format:
COCCCn1c(=S)[nH]c2sc3c(c2c1=O)CCCS3
  Potency: inconclusive: 28.2 µM [inhibitor, single point]
COc1cccc(/C(O)=C2/C(=O)C(=O)N(Cc3ccco3)C2c2ccncc2)c1 (stereo not given)
  Potency: inconclusive: 1 µM [inhibitor, full curve, poor fit]
